The list shows a part of the results. The source does not settle which construct or isoform was used.

The target of this test is T1, ELF2 (UniProt Q15723).
T1 sequence: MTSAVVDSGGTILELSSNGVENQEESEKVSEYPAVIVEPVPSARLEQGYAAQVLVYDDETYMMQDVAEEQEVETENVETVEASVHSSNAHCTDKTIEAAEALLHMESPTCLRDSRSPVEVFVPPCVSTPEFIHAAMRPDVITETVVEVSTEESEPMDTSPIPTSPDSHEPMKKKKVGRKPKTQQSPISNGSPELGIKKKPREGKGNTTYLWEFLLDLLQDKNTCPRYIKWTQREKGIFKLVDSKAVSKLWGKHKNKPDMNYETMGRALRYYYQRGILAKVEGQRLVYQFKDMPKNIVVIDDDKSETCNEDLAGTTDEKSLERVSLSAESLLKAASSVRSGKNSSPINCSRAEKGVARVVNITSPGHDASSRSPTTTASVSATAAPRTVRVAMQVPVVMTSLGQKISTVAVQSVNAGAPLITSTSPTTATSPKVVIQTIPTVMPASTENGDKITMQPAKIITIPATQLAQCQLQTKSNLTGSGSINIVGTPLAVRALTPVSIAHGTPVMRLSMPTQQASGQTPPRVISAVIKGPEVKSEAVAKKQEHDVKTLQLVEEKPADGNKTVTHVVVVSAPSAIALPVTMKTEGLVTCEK
The test is described as follows: DAPPL (digital affinity profiling via proximity ligation, sequencing). As to conditions: 10 mM Tris-HCl pH 7.5, 50 mM NaCl, 1 mM DTT, 4% glycerol, room temperature, 30 min; GST-TFs on glutathione beads, 16-mer random dsDNA library, 0.1% …; high values mean tight binding; double strand, one strand shown; scale: fold enrichment (6-mer frequency, TF over GST control).
Sequence ACTACT returned a binding signal of 1.27.

In turn, AAGAAA showed a binding signal of 1.18.

The sequence ATTCCC gave a binding signal of 1.43.

Sequence AATTGC yielded a binding signal of 1.36.

In turn, TGCTCT showed a binding signal of 1.24.

As for TTACAC, the binding signal came to 1.24.

Sequence GATTAT displayed a binding signal of 1.04.

Take TTGAAT: the binding signal came to 1.04.

As for CTTTTT, the binding signal came out at 1.32.

On to GAAGCA, for which the binding signal was 1.49.

In the case of TTCCCC, the binding signal came to 1.71.

With CAGGAT, the binding signal was 1.25.

In turn, CTATGA displayed a binding signal of 1.04.

Regarding TAATAG, the binding signal was determined as 1.18.

AATGTC came in with a binding signal of 1.28.

As to AATTCC, the binding signal is 2.36.

In turn, TTTAGC returned a binding signal of 1.05.

CTCCGG returned a binding signal of 1.69.

For the sequence TACCTC, the binding signal is 1.22.

Regarding TAGTTT, the binding signal turned out to be 1.22.

AGAATT: the binding signal came to 1.15.

The sequence GCTTGC returned a binding signal of 1.19.

CCACTT: the binding signal stood at 2.15.

Turning to TATAGT, the binding signal turned out to be 1.09.

As to ATTCGT, the binding signal was 1.15.

Sequence TTCACT showed a binding signal of 1.35.

TCTCAA returned a binding signal of 1.18.

For the sequence TAACAA, the binding signal stood at 1.2.

AATAGA came in with a binding signal of 1.11.

TCTTTG gave a binding signal of 1.09.

Consider ATGGTA, for which the binding signal amounted to 1.29.

In the case of ATATAC, the binding signal was 1.23.

As to TCTGAT, the binding signal is 1.07.

With ATCTAA, the binding signal was determined as 1.1.

The sequence CTGCCC showed a binding signal of 1.22.

TATATA registered a binding signal of 1.3.

In the case of GATTAC, the binding signal stood at 1.16.

Turning to CTCCGC, the binding signal worked out at 1.42.

For the sequence ACTCTT, the binding signal is 1.22.

The values are drawn from article PMC7862700.
